For two substances, binding results are on record in article PMC7948404.

Amino acid sequences for entries named in this document (tags omitted).
UniProt Q9NS75: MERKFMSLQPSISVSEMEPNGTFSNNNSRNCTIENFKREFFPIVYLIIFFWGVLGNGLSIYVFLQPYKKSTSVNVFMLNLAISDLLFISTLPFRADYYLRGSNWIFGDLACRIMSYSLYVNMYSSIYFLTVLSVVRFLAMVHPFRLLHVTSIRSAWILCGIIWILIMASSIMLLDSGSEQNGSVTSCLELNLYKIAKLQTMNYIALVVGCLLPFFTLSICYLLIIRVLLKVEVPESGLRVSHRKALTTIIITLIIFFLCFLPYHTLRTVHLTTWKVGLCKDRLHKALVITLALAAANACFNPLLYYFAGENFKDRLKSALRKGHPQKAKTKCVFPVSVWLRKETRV
UniProt P49407: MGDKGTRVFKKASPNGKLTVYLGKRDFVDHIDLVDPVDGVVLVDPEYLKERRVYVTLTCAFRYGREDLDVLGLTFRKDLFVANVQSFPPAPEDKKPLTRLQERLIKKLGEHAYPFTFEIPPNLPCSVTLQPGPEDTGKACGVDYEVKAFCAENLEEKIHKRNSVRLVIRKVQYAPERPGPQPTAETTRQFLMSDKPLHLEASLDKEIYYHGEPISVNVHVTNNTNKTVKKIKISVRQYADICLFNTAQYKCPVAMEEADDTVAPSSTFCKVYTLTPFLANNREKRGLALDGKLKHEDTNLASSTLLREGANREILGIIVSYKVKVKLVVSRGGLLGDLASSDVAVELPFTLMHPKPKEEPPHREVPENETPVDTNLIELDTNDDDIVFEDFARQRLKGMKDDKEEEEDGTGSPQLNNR

These are yes or no findings as the source states them, for the method shown. In cells and extracts the contact can be indirect. Some results given as binding are weak or reduced against the parent protein; the word gives no strength.

Assay [1] addresses CysLTR2-GFP10 WT (human) (UniProt Q9NS75). As to the kind of experiment: FRET or BRET; BRET^2 time course in live HEK293T cells: 5 ng β-arrestin-RLuc3 and 80 ng receptor-GFP10 WT DNA per well; 0, 30 or 1000 nM LTD4, a reading every 60 s for about 24 min.
Assay [2] has the same target. As to the kind of experiment: FRET or BRET; BRET^2 agonist dose-response in live HEK293T cells: 5 ng β-arrestin-RLuc3 (donor) and 80 ng receptor-GFP10 (acceptor) DNA per well, 24 h after transfection; LTD4 10 pM to 1 μM, 10 min at RT; BRET buffer (DMEM FluoroBrite, 15 mM HEPES, 0.1% BSA, 4 mM glutamine); net BRET^2 = ratio minus β-arrestin-RLuc3-only ratio.

Regarding “β-arrestin1–RLuc3 (from UniProt P49407 1-418)”, the binding entry in the assay with CysLTR2-GFP10 WT (human) [1] and with CysLTR2-GFP10 WT (human) [2] was “binds” each time. “β-arrestin2-RLuc3 (from UniProt P32121 1-409)”: in the assay with CysLTR2-GFP10 WT (human) [1], the binding entry was “binds”.
